This passage reports binding results from article doi:10.1101/2022.03.17.484727.

By UniProt entry, the sequences of proteins in these tests, tags left out. Where a name states a change or a piece, a line headed by the entry shows the natural chain unless it says otherwise. Chains listed by the source or under a name are the forms on record and can include a tag or linker.
UniProt Q14258: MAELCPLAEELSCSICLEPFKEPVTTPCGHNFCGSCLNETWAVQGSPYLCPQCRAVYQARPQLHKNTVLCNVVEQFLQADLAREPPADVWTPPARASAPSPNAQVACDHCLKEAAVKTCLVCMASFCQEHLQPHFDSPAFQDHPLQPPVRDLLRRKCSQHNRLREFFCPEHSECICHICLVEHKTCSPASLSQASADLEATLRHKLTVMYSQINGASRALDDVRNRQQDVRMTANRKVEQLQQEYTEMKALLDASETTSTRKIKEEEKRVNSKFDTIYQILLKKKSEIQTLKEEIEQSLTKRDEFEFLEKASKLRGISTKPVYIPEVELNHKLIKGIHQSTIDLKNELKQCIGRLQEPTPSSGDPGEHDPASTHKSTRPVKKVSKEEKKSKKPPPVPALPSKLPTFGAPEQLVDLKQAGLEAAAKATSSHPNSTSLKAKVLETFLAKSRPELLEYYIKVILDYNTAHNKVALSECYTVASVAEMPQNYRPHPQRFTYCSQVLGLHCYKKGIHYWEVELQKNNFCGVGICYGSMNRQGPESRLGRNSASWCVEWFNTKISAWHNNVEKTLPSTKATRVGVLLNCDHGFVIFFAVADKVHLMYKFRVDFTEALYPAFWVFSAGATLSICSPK
FLAG-tagged TRIM25-PTAA (Q14258, form named): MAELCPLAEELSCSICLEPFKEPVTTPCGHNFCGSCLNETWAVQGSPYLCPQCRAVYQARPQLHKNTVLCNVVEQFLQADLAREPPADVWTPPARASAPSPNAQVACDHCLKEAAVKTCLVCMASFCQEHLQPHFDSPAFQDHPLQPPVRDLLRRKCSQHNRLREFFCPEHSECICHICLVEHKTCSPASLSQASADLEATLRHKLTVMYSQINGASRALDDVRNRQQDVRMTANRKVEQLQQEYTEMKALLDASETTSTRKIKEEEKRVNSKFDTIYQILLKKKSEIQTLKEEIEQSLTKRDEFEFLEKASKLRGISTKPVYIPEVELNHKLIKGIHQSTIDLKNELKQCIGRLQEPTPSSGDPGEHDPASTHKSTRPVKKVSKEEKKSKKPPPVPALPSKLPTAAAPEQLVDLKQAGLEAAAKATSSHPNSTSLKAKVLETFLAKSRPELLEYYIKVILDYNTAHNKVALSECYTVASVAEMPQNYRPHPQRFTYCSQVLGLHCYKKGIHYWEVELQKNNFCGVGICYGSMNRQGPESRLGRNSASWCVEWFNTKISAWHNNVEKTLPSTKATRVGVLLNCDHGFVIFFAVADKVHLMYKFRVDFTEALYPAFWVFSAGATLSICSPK
myc-tagged NME1 (P15531-2, form named): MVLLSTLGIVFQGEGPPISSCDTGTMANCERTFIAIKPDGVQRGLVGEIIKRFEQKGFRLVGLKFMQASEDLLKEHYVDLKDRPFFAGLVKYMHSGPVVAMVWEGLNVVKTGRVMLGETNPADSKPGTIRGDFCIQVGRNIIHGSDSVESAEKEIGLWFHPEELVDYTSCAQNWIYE

Results are given in words; binding and its absence hold for the method and conditions named. Binding seen in cells or lysates may run through a third protein. Some entries that bind do so weakly or less than the wild type. Where a sequence is shown, tags or fusion partners need not be part of it.

What all share (test): co-IP
Assay [1] deals with FLAG-tagged TRIM25-R54P (human) (UniProt Q14258).
In assay [2] the target is FLAG-tagged TRIM25 wild-type (human) (UniProt Q14258).
Assay [3] deals with FLAG-tagged TRIM25-PTAA (human) (UniProt Q14258).

Turning to “myc-tagged NME1 (from UniProt P15531-2 1-177) (enzyme)”, the binding entry in assay [1] and in assay [2] was “no binding” in each case.

Regarding “myc-tagged G3BP1 (from UniProt Q13283 1-466)”, the binding result in assay [1] was “binds”; in assay [3], “no binding”; in assay [2], “binds”.

B1: myc-tagged G3BP2 (protein, UniProt Q9UN86 1-482)
chain: MVMEKPSPLLVGREFVRQYYTLLNKAPEYLHRFYGRNSSYVHGGVDASGKPQEAVYGQNDIHHKVLSLNFSECHTKIRHVDAHATLSDGVVVQVMGLLSNSGQPERKFMQTFVLAPEGSVPNKFYVHNDMFRYEDEVFGDSEPELDEESEDEVEEEQEERQPSPEPVQENANSGYYEAHPVTNGIEEPLEESSHEPEPEPESETKTEELKPQVEEKNLEELEEKSTTPPPAEPVSLPQEPPKAFSWASVTSKNLPPSGTVSSSGIPPHVKAPVSQPRVEAKPEVQSQPPRVREQRPRERPGFPPRGPRPGRGDMEQNDSDNRRIIRYPDSHQLFVGNLPHDIDENELKEFFMSFGNVVELRINTKGVGGKLPNFGFVVFDDSEPVQRILIAKPIMFRGEVRLNVEEKKTRAARERETRGGGDDRRDIRRNDRGPGGPRGIVGGGMMRDRDGRGPPPRGGMAQKLGSGRGTGQMEGRFTGQRR
As for B1, the binding result is reported as “binds” in assay [1], “no binding” in assay [3] and “binds” in assay [2].

B2: V5-tagged UPF1 (protein, UniProt Q92900 1-1129)
chain: MSVEAYGPSSQTLTFLDTEEAELLGADTQGSEFEFTDFTLPSQTQTPPGGPGGPGGGGAGGPGGAGAGAAAGQLDAQVGPEGILQNGAVDDSVAKTSQLLAELNFEEDEEDTYYTKDLPIHACSYCGIHDPACVVYCNTSKKWFCNGRGNTSGSHIVNHLVRAKCKEVTLHKDGPLGETVLECYNCGCRNVFLLGFIPAKADSVVVLLCRQPCASQSSLKDINWDSSQWQPLIQDRCFLSWLVKIPSEQEQLRARQITAQQINKLEELWKENPSATLEDLEKPGVDEEPQHVLLRYEDAYQYQNIFGPLVKLEADYDKKLKESQTQDNITVRWDLGLNKKRIAYFTLPKTDSGNEDLVIIWLRDMRLMQGDEICLRYKGDLAPLWKGIGHVIKVPDNYGDEIAIELRSSVGAPVEVTHNFQVDFVWKSTSFDRMQSALKTFAVDETSVSGYIYHKLLGHEVEDVIIKCQLPKRFTAQGLPDLNHSQVYAVKTVLQRPLSLIQGPPGTGKTVTSATIVYHLARQGNGPVLVCAPSNIAVDQLTEKIHQTGLKVVRLCAKSREAIDSPVSFLALHNQIRNMDSMPELQKLQQLKDETGELSSADEKRYRALKRTAERELLMNADVICCTCVGAGDPRLAKMQFRSILIDESTQATEPECMVPVVLGAKQLILVGDHCQLGPVVMCKKAAKAGLSQSLFERLVVLGIRPIRLQVQYRMHPALSAFPSNIFYEGSLQNGVTAADRVKKGFDFQWPQPDKPMFFYVTQGQEEIASSGTSYLNRTEAANVEKITTKLLKAGAKPDQIGIITPYEGQRSYLVQYMQFSGSLHTKLYQEVEIASVDAFQGREKDFIILSCVRANEHQGIGFLNDPRRLNVALTRARYGVIIVGNPKALSKQPLWNHLLNYYKEQKVLVEGPLNNLRESLMQFSKPRKLVNTINPGARFMTTAMYDAREAIIPGSVYDRSSQGRPSSMYFQTHDQIGMISAGPSHVAAMNIPIPFNLVMPPMPPPGYFGQANGPAAGRGTPKGKTGRGGRQKNRFGLPGPSQTNLPNSQASQDVASQPFSQGALTQGYISMSQPSQMSQPGLSQPELSQDSYLGDEFKSQIDVALSQDSTYQGERAYQHGGVTGLSQY
Regarding B2, the binding result in assay [1] and in assay [2] was “binds” in each case.

B3: myc-tagged UPF1 (protein, UniProt Q92900 1-1129)
chain: MSVEAYGPSSQTLTFLDTEEAELLGADTQGSEFEFTDFTLPSQTQTPPGGPGGPGGGGAGGPGGAGAGAAAGQLDAQVGPEGILQNGAVDDSVAKTSQLLAELNFEEDEEDTYYTKDLPIHACSYCGIHDPACVVYCNTSKKWFCNGRGNTSGSHIVNHLVRAKCKEVTLHKDGPLGETVLECYNCGCRNVFLLGFIPAKADSVVVLLCRQPCASQSSLKDINWDSSQWQPLIQDRCFLSWLVKIPSEQEQLRARQITAQQINKLEELWKENPSATLEDLEKPGVDEEPQHVLLRYEDAYQYQNIFGPLVKLEADYDKKLKESQTQDNITVRWDLGLNKKRIAYFTLPKTDSGNEDLVIIWLRDMRLMQGDEICLRYKGDLAPLWKGIGHVIKVPDNYGDEIAIELRSSVGAPVEVTHNFQVDFVWKSTSFDRMQSALKTFAVDETSVSGYIYHKLLGHEVEDVIIKCQLPKRFTAQGLPDLNHSQVYAVKTVLQRPLSLIQGPPGTGKTVTSATIVYHLARQGNGPVLVCAPSNIAVDQLTEKIHQTGLKVVRLCAKSREAIDSPVSFLALHNQIRNMDSMPELQKLQQLKDETGELSSADEKRYRALKRTAERELLMNADVICCTCVGAGDPRLAKMQFRSILIDESTQATEPECMVPVVLGAKQLILVGDHCQLGPVVMCKKAAKAGLSQSLFERLVVLGIRPIRLQVQYRMHPALSAFPSNIFYEGSLQNGVTAADRVKKGFDFQWPQPDKPMFFYVTQGQEEIASSGTSYLNRTEAANVEKITTKLLKAGAKPDQIGIITPYEGQRSYLVQYMQFSGSLHTKLYQEVEIASVDAFQGREKDFIILSCVRANEHQGIGFLNDPRRLNVALTRARYGVIIVGNPKALSKQPLWNHLLNYYKEQKVLVEGPLNNLRESLMQFSKPRKLVNTINPGARFMTTAMYDAREAIIPGSVYDRSSQGRPSSMYFQTHDQIGMISAGPSHVAAMNIPIPFNLVMPPMPPPGYFGQANGPAAGRGTPKGKTGRGGRQKNRFGLPGPSQTNLPNSQASQDVASQPFSQGALTQGYISMSQPSQMSQPGLSQPELSQDSYLGDEFKSQIDVALSQDSTYQGERAYQHGGVTGLSQY
In the case of B3, the binding entry in assay [1] and in assay [2] was “binds” in each case.
